In US20060021091, “Maize bZIP transcription factors and genes encoding the same and use thereof” (published 2006):
Negatives hold for the conditions tested. Tags and fusion partners may be left off the protein sequences shown.

Legend:
Test in all cases: one hybrid
Settings in all cases: protein in cells, label: 32P 5' end (EMSA)
[1] = test system: T1, ABP9 (in cells) (Zea mays)
T1 sequence: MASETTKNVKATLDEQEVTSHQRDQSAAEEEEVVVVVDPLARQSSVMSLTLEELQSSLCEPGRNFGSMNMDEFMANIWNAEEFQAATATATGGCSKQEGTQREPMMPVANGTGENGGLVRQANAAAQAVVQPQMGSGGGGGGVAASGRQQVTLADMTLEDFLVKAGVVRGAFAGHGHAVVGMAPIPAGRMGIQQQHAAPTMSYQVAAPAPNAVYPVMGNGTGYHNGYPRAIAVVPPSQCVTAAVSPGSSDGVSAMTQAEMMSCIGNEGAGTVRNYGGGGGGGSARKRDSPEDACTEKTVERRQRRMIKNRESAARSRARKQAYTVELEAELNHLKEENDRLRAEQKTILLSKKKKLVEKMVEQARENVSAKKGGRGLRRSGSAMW

[2] = test system: T2, ABP2 (in cells) (Zea mays)
T2 sequence: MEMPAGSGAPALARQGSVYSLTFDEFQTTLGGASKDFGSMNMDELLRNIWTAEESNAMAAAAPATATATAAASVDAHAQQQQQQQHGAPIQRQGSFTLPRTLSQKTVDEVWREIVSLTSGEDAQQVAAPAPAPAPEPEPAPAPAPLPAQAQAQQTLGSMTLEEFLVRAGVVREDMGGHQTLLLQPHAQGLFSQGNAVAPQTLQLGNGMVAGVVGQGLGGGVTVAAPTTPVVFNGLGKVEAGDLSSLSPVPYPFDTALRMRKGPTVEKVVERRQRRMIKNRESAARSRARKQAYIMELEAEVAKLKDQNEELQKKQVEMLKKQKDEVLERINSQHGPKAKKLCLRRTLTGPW

[3] = test system: T3, ABP4 (in cells) (Zea mays)
T3 sequence: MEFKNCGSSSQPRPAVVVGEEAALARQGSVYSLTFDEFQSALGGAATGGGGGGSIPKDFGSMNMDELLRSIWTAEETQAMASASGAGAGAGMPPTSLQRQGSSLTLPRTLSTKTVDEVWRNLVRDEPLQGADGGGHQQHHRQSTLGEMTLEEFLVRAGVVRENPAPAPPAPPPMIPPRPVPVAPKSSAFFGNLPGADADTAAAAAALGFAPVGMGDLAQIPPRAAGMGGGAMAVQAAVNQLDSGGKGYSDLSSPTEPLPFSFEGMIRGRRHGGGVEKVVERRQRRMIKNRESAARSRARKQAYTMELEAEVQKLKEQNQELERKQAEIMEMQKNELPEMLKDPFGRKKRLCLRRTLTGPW

[4] = 4mer mABRE HIS3 reporter, no growth, variant of ABRE
[5] = 4mer ABRE HIS3 reporter yeast grows on His-, also activates reporter in maize cells (FIG. 4)

Sequence	activity on this sequence [1, 4]	activity on this sequence [2, 4]	activity on this sequence [3, 4]	activity on this sequence [1, 5]	activity on this sequence [2, 5]	activity on this sequence [3, 5]
GAAGTAACATGTTCGGTGG / TCCCACCGAACATGTTACT [mABRE]	not active	not active	not active	–	–	–
GAAGTCCACGTGGAGGTGG / TCCCACCTCCACGTGGACT [ABRE]	–	–	–	active	active	active
